Reference: patent publication EP4667467A1, “PROTAC DEGRADERS OF MLLT1 AND/OR MLLT3” (Dark Blue Therapeutics Ltd, priority 2024, dated 2025)
At least one compound was matched to its structure with a doubt left.

Target: T1, MLLT1 (Homo sapiens, UniProt Q03111)
T1 construct: endogenous in cells; host or cells: MV4-11 (ATCC CRL-9591)
T1 sequence (Q03111 1-559): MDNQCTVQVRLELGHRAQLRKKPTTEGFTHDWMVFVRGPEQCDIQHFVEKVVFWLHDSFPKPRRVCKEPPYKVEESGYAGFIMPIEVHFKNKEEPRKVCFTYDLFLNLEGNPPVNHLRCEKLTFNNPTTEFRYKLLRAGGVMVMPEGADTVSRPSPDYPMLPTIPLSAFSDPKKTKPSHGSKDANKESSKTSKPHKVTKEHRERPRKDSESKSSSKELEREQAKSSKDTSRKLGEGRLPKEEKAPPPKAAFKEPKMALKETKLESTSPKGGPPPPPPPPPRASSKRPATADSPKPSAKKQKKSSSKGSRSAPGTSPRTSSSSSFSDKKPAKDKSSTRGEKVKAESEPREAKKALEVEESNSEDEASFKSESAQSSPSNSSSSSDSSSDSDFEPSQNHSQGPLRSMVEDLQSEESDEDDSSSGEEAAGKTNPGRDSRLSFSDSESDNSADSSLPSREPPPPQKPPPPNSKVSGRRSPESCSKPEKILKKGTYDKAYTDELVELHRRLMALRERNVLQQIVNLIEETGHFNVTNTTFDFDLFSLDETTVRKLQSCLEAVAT
Assay: MLLT1 Degradation Assay (JESS automated chemiluminescent detection, MV4-11 cells)
Assay type: cell-based
Details: 24h, with respect to DMSO control; for MLLT1 % Degradation @ 0.1 µM: 0.1 µM (100 nM) test compound; for MLLT 1 % Degradation @ 1 µM: 1 µM (1000 nM) test compound
Experimental: MLLT1 degradation efficacy of compounds were tested in an automated chemiluminescent detection system (JESS, Cat# 004-650). […] 10 mM DMSO stocks were prepared, and cells were treated with three concentrations of test compounds viz. 1000, 100 and 10 nM at a final DMSO concentration of 0.1% and incubated for 24h at 37°C, 5% CO2. […] Post run, data were analysed using "Compass for SW" software for chemiluminescent detection. The peak area for each band was used for the calculation of MLLT1 degradation with respect to DMSO control. Data is shown as "MLLT1 % degradation".

Row | SMILES | MLLT1 % Degradation @ 0.1 µM | MLLT 1 % Degradation @ 1 µM | MLLT1 % Degradation @ 0.01 µM (0.01 µM (10 nM) test compound)
1 | CN1CCC[C@@H]1c1cc2cnc(NC(=O)c3cccc(NCC4CCN(c5cccc6c5C(=O)N(C5CCC(=O)NC5=O)C6=O)CC4)c3)cc2[nH]1 (stereo partly drawn) [Example 46, 3-(((1-(2-(2,6-dioxopiperidin-3-yl)-1,3-dioxoisoindolin-4-yl)piperidin-4-yl)methyl)amino)-N-(2-((R)-1-methylpyrrolidin-2-yl)-1H-pyrrolo[3,2-c]pyridin-6-yl)benzamide] | B (Category B: 50% ≤ B < 75% degradation) | B (Category B: 50% ≤ B < 75% degradation) | 
2 | Cc1ncsc1-c1ccc(CNC(=O)[C@@H]2C[C@@H](O)CN2C(=O)[C@@H](NC(=O)CCCCCCCCCCNC(=O)c2ccc(C(=O)Nc3cc4[nH]c([C@H]5CCCN5C)cc4cn3)cc2)C(C)(C)C)cc1 [Example 69, (2S,4R)-1-[(2S)-3,3-dimethyl-2-(11-{[4-({2-[(2R)-1-methylpyrrolidin-2-yl]-1H-pyrrolo[3,2-c]pyridin-6-yl}carbamoyl)phenyl]formamido}undecanamido)butanoyl]-4-hydroxy-N-{[4-(4-methyl-1,3-thiazol-5-yl)phenyl]methyl}pyrrolidine-2-carboxamide] | C (Category C: 25% ≤ C < 50% degradation) | C (Category C: 25% ≤ C < 50% degradation) | C (Category C: 25% ≤ C < 50% degradation)
